At least one structure is not confirmed: it was looked up by name or label, or the drawing left a doubt.
What was measured:
Burkholderia cepacia [1] = experiment: Bacterial load quantitation after Burkholderia cepacia infection; format: in vivo, Drosophila; details: wild type flies injected with rapamycin vs buffer; 0 hrs n.s., 9 hrs p=0.0049, 18 hrs p=0.0198
Text: Data are plotted with SEM.

Burkholderia cepacia [2] = experiment: Survival of flies after Burkholderia cepacia infection; format: in vivo, Drosophila; details: wild type flies injected with 9.6 ng per fly at the time of infection, relative to buffer alone; p<0.0001
Protocol: Infections were performed as previously described (Schneider et al. 2007) with Burkholderia cepacia (ATCC strain #25416). Death was assayed visually the next day every hour or more frequently as needed. Survival curves are plotted as Kaplan-Meier graphs and log-rank analysis performed using GraphPad Prism. All infection experiments were performed with a minimum of 3 independent trials and yielded statistically similar results, except where noted. Graphs and p-values in figures are representative trials.
To directly test the role of TORC1 in survival of infection, TORC1 activity was inhibited in two ways. First, flies were injected with rapamycin, a TORC1-specific inhibitor (9.6 ng per fly, equivalent to the mammalian dose of 16 mg/kg (Lee et al. 2009; Loeweth et al. 2002)).
Wild type flies, 5-7 day old males, were fed two different concentrations (250 μM and 500 μM) of Torin (MedChem Express), a TORC1 and TORC2 inhibitor, for two days prior to infection with Burkholderia cepacia as described in Example 1. Controls were fed a vehicle.

In the case of `CO[C@H]1C[C@@H]2CC[C@@H](C)[C@@](O)(O2)C(=O)C(=O)N2CCCC[C@H]2C(=O)O[C@H]([C@H](C)C[C@@H]2CC[C@@H](O)[C@H](OC)C2)CC(=O)[C@H](C)/C=C(\C)[C@@H](O)[C@@H](OC)C(=O)[C@H](C)C[C@H](C)/C=C/C=C/C=C/1C` [rapamycin], the bacterial load (Burkholderia cepacia [1]) is reported as “increased bacterial load” and the survival of infection (Burkholderia cepacia [2]) is reported as “inhibited survival of infection”.

Reference: patent US11116754B2, “Inhibition of TOR complex 2 increases immunity against bacterial infection” (THE TRUSTEES OF COLUMBIA UNIVERSITY IN THE CITY OF NEW YORK, priority 2015, dated 2021)
